Experimental data from PubChem BioAssay AID651768 (National Center for Advancing Translational Sciences (NCATS), 2012).
Screen size: about 360,000 compounds; about 1,700 (0.47%) were called active. The inconclusive results got no clear call from the source; some entries with a clear call stand among them for comparison. Calls follow the shape of the dose curve; as a rule, active = well fitted inhibition curve with a large enough effect; inconclusive = small, poorly fitted or top-dose-only effect; inactive = no such curve, though single readings can be large or run the other way. Where the call is inconclusive, the potency comes from a doubtful curve fit.
% is scaled to controls: 0 for no effect and ±100 for the full control effect; potency is read from the fitted curve at half-maximal effect.
Also: nearly all actives have a fitted effect of over 55% in size.

By UniProt entry, the sequences of proteins in these tests, tags left out.
UniProt Q14191, whole entry, looked up: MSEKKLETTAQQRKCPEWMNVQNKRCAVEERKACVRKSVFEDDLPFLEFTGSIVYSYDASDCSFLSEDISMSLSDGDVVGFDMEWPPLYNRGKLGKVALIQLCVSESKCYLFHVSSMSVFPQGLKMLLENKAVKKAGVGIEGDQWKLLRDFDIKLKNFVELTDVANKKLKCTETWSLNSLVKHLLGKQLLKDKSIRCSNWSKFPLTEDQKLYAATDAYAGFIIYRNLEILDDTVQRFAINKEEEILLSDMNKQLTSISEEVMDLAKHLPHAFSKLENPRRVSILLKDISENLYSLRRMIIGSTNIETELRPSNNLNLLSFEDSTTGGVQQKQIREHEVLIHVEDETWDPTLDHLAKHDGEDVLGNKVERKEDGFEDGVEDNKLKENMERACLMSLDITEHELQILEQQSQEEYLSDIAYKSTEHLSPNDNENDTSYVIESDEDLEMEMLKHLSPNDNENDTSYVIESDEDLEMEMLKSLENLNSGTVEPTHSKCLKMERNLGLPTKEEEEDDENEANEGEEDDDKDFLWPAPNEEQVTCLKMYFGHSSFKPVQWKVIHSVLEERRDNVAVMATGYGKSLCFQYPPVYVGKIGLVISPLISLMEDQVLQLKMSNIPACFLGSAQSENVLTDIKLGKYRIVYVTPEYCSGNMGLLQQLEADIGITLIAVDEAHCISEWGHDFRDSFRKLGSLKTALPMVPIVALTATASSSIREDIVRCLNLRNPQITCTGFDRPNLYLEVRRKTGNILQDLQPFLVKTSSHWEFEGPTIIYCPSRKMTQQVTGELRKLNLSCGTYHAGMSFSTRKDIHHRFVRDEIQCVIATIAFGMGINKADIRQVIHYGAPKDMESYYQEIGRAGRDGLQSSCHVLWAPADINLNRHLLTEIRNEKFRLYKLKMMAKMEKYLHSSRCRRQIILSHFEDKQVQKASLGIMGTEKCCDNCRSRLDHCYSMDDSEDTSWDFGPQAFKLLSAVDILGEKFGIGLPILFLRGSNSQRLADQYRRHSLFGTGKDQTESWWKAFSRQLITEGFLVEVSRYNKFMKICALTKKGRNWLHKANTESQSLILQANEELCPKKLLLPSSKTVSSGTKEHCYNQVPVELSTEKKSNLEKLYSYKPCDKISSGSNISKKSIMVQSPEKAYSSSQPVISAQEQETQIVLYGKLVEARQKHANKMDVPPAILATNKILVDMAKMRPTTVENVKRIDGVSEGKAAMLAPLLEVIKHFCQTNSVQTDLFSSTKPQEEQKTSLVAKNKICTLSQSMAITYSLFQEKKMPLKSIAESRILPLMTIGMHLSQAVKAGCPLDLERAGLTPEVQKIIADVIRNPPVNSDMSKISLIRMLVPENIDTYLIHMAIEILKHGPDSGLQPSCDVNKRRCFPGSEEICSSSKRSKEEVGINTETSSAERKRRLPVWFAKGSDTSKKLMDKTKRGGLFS

These compounds were tested against Bifunctional 3'-5' exonuclease/ATP-dependent helicase WRN (Homo sapiens) (UniProt Q14191) (assay: qHTS for Inhibitors of WRN Helicase). Conditions: WRN helicase unwinding, fluorescent forked duplex, kinetic; activity change, negative = inhibition: at 114 µM (top of the series) unless noted.
In short: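 Fluorescence dequenching readout, ex 525 nm/em 598 nm, kinetic mode: forked duplex DNA (100 nM final) with adjacent fluorophore and quencher unwound by WRN (20 nM final) with 2 mM ATP. Compound preincubation 15 min, room temperature.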
For COc1cc(NC(=O)COC(=O)CNC(=O)C2CCCCC2)cc(OC)c1, the Potency was inconclusive: 39.8 µM [inhibitor, single point]. With O=C(O)c1ccc2ncsc2c1 the Potency was inconclusive: 28.2 µM [inhibitor, full curve]. For Brc1ccc(-c2nc3ncccn3c2NC2CCCCC2)o1, the “activity change, negative = inhibition” value was inactive: 2.87%. With O=C(CSc1nc(-c2ccc(F)cc2)nc2c1Cc1ccccc1O2)Nc1ccc(C(=O)O)cc1 the Potency was inconclusive: 5.32 µM [inhibitor, partial curve]. With COc1ccccc1NC(=O)CN1CC(=O)Nc2ccccc21 the “activity change, negative = inhibition” value was inactive: 2.76%. In the case of O=c1c2ccccc2sc2nc(C3CCCCC3)n(Cc3ccco3)c(=O)c12, the “activity change, negative = inhibition” value is reported as inactive: -22.1%. CC(C)(C)OC(=O)C[C@@H]1C/C=C\C[C@@H](CC(=O)N(CCO)Cc2ccccc2)C(=O)NC[C@H](c2ccccc2)OC1=O was tested, and the Potency was inconclusive: 89.1 µM [inhibitor, single point]. With CCOc1cc(/C=C2\SC(=S)N(NS(=O)(=O)c3ccc(C)cc3)C2=O)ccc1O the Potency was active: 50.1 µM. In the case of CCOC(=O)c1c(NC(=O)c2c(-c3ccccc3)noc2C)sc(C)c1-c1ccccc1, the activity change, negative = inhibition is reported as inconclusive: -37% [inhibitor] [at 57.1 µM]. In the case of O=C(Nc1cc(C(F)(F)F)cc(C(F)(F)F)c1)c1ccc(Cn2cc(C(F)(F)F)ccc2=O)cc1, the “activity change, negative = inhibition” value is reported as inactive: -7.74%. For CC(=O)Nc1ccc(C(=O)/C=C/c2ccco2)cc1, the Potency was inconclusive: 44.7 µM [inhibitor, partial curve]. In the case of CCOc1ccc(-n2c(N)c(C(=O)NCc3cccnc3)sc2=S)cc1, the “activity change, negative = inhibition” value is reported as inactive: 0.881% [at 57.1 µM]. For O=C(NN1C(=O)/C(=C/c2cccs2)SC1=S)c1ccncc1, the Potency was inconclusive: 7.08 µM [inhibitor, full curve]. In the case of Cc1cccc(OCC(=O)NCc2ccccc2)c1, the Potency is reported as inconclusive: 89.1 µM [inhibitor, single point]. For COc1ccc(NC(=O)COC(=O)CC2Sc3ccccc3NC2=O)cc1 (centres undefined), the “activity change, negative = inhibition” value was inactive: -3.06%. In the case of Cn1cc(Br)c(C(=O)Nc2c(F)c(F)c(F)c(F)c2F)n1, the Potency is reported as inconclusive: 25.1 µM [inhibitor, single point]. For O=C1CN(C(=O)COC(=O)CCc2ccccc2O)c2ccccc2N1, the Potency was inconclusive: 25.1 µM [inhibitor, single point]. With CCCCCCc1cc2cc(C(=O)OCC)c(=O)oc2cc1O the “activity change, negative = inhibition” value was inactive: 4.68%. With COc1c(-c2ccc(O)c(O)c2)oc2cc(O)cc(O)c2c1=O the Potency was active: 31.6 µM. O=c1cc(-c2ccc(O)c(O)c2)oc2cc(O[C@@H]3O[C@H](CO)[C@@H](O)[C@H](O)[C@H]3O)cc(O)c12 was tested, and the Potency was inconclusive: 56.2 µM [inhibitor, partial curve]. COc1cc(CO)ccc1OCC(=O)Nc1cccc2ccccc12 was tested, and the Potency was inconclusive: 79.4 µM [inhibitor, single point]. With COc1ccc(/C=C2/SC(=S)N(CC(=O)O)C2=O)cc1OCc1ccc(Cl)cc1 the Potency was active: 56.2 µM. With CCOc1ccc(N=Cc2c(C)[nH]n(-c3nc4ccccc4[nH]3)c2=O)cc1 the Potency was inconclusive: 26.7 µM [inhibitor, partial curve]. With C/C=C/c1ccc(OCCCNC(C)CC)c(OC)c1 (centres undefined) the Potency was inconclusive: 31.6 µM [inhibitor, full curve]. For CC(=O)Nc1ccc(S(C)(=O)=O)c(C)c1, the Potency was inconclusive: 10 µM [inhibitor, partial curve]. For NS(=O)(=O)c1ccc2c(c1)C1C=CCC1C(C1CC=CCC1)N2 (centres undefined), the Potency was inconclusive: 89.1 µM [inhibitor, partial curve]. For CC1=C(C)CS(=O)N(S(=O)(=O)c2ccc(Cl)cc2)C1 (centres undefined), the Potency was active: 12.6 µM. CCOC(=O)CCCc1sc(N)nc1-c1[nH]c(=O)[nH]c1C was tested, and the Potency was inconclusive: 56.2 µM [inhibitor, partial curve]. O=C1c2ccccc2S(=O)(=O)c2cc(-c3nn[nH]n3)ccc21 was tested, and the “activity change, negative = inhibition” value was inactive: -6.67%. For CCOC(=O)c1nn(-c2ccccc2)c(=O)c2c(N)scc12, the Potency was inconclusive: 79.4 µM [inhibitor, single point]. O=C(NC1CC1)C1CCN(S(=O)(=O)c2cc([N+](=O)[O-])ccc2Cl)CC1 was tested, and the Potency was inconclusive: 50.1 µM [inhibitor, partial curve]. Cc1ccc(NC(=O)CN(C)C(=O)c2cccc(-n3cccc3)c2)cc1 was tested, and the Potency was active: 35.5 µM. In the case of COc1ccccc1C(=O)Nc1ccnn1C1CCN(Cc2cc(C)c(C)cc2C)CC1, the Potency is reported as inconclusive: 70.8 µM [inhibitor, single point]. With CCOC(=O)c1c(NC(=O)CSc2nnc(C)s2)sc2c1CCN(C)C2 the Potency was inconclusive: 44.7 µM [inhibitor, partial curve]. In the case of N#C/C(=C\c1ccc[nH]1)C(=O)c1ccccc1, the “activity change, negative = inhibition” value is reported as inactive: 17.9%. O=C(N/N=C/c1c(O)ccc2ccccc12)c1ccc(Br)o1 was tested, and the Potency was inconclusive: 22.4 µM [inhibitor, single point]. CC(=O)NC1C(=O)N(CCN2CCOCC2)c2ccc(Cl)cc21 (centres undefined) was tested, and the Potency was active: 22.4 µM. With Cc1cccc(OCCCC(=O)Nc2ccc(S(=O)(=O)Nc3nccs3)cc2)c1C the Potency was inconclusive: 35.5 µM [inhibitor, full curve]. For COc1cc(Br)cc(/C=N/c2ncn[nH]2)c1O, the Potency was inconclusive: 56.2 µM [inhibitor, partial curve, poor fit]. With CC(=O)Nc1ccc(C(=O)OCC(=O)N2CCCC2=O)cc1 the “activity change, negative = inhibition” value was inactive: -25%. For CC(C)n1c(=O)c2c(O)cc(=O)oc2c2ccccc21, the activity change, negative = inhibition was inactive: -3.55% [at 11.6 µM]. O=C1CCCC2=C1C(c1ccncc1)c1c(nc(SCc3ccccc3Cl)[nH]c1=O)N2 (centres undefined) was tested, and the Potency was inconclusive: 50.1 µM [inhibitor, partial curve]. In the case of COc1ccc(N2CC(C(=O)Nc3nnc(SCC(=O)NCC4CCCO4)s3)CC2=O)cc1 (centres undefined), the Potency is reported as inconclusive: 25.1 µM [inhibitor, full curve]. In the case of COc1cccc(C=NCC(C)N=Cc2cccc(OC)c2O)c1O (centres undefined), the Potency is reported as inconclusive: 100 µM [inhibitor, partial curve, poor fit]. O=C(NCCc1cccs1)C1CC(c2ccccc2[N+](=O)[O-])=NO1 (centres undefined) was tested, and the “activity change, negative = inhibition” value was inactive: 0.92%. With O=C(CSc1nnc(-c2ccco2)n1Cc1ccccc1)c1ccc(F)cc1 the “activity change, negative = inhibition” value was inactive: -17.2%. For CN(C)c1ccc(C=C2SC(=S)N(Cc3ccco3)C2=O)cc1, the Potency was inconclusive: 2.82 µM [inhibitor, full curve, poor fit]. For O=S(=O)([N-]c1nc2ccccc2nc1-[n+]1ccc(Cc2ccccc2)cc1)c1ccc(Br)s1, the Potency was inconclusive: 5.62 µM [inhibitor, full curve, poor fit]. For CCOc1ccc(OCc2ccc(C(=O)NN=Cc3ccc[nH]3)cc2)cc1, the Potency was inconclusive: 31.6 µM [inhibitor, full curve, poor fit]. O=C1CC(c2cccs2)Cc2nc(NC(=O)C3CC3)ncc21 (centres undefined) was tested, and the Potency was inconclusive: 3.98 µM [inhibitor, full curve, poor fit]. O=C(NC1CCN(Cc2ccccc2)CC1)c1cc(-c2ccccn2)nc2ccccc12 was tested, and the “activity change, negative = inhibition” value was inactive: 4.74%. With O=C(CSc1nc2cc(C(F)(F)F)ccc2n1Cc1ccccc1)NC1CCS(=O)(=O)C1 (centres undefined) the “activity change, negative = inhibition” value was inactive: -1.72%. In the case of Nc1c(S(=O)(=O)O)cc(NC(=O)c2ccccc2)c2c1C(=O)c1ccccc1C2=O, the Potency is reported as active: 28.2 µM. With O=C(O)c1ccc(CSc2nc3ccc(NC(=O)c4ccccc4C(=O)O)cc3s2)cc1 the Potency was inconclusive: 50.1 µM [inhibitor, partial curve]. With O=c1c(/C=C(\O)c2ccc(F)cc2)nc2ccccc2n1-c1ccccc1 the Potency was inconclusive: 89.1 µM [inhibitor, single point]. In the case of CCn1c(C)nnc1SCC(=O)Nc1ccc(N2CCOCC2)cc1, the Potency is reported as inconclusive: 89.1 µM [inhibitor, single point]. With Cc1ccc(S(=O)(=O)N2CCCCC2)cc1NC(=O)Cc1c[nH]c2ccccc12 the Potency was inconclusive: 10 µM [inhibitor, partial curve]. CN(c1ccccc1)S(=O)(=O)c1cccc(NC(=O)CSc2nccc(=O)[nH]2)c1 was tested, and the Potency was inconclusive: 79.4 µM [inhibitor, partial curve]. For COc1ncnc2c1NC1=C(S2)C(=NCCC(=O)O)CC(C)(C)C1, the Potency was inconclusive: 79.4 µM [inhibitor, partial curve]. For CS(=O)(=O)c1ccc2nc(N)sc2c1, the “activity change, negative = inhibition” value was inactive: 0.333%. For Cc1ccc(Nc2nc3ccccc3s2)c(C)c1, the Potency was inconclusive: 25.1 µM [inhibitor, single point]. Cc1noc(C)c1S(=O)(=O)N(C)C[C@H]1OCc2cnnn2CCCC(=O)N([C@H](C)CO)C[C@H]1C was tested, and the “activity change, negative = inhibition” value was inactive: 1.88%. In the case of COc1ccc(CCNC(=O)c2ccc(-c3ccc([N+](=O)[O-])cc3)o2)cc1OC, the Potency is reported as inconclusive: 25.1 µM [inhibitor, single point]. With NS(=O)(=O)c1ccc(CNC(=O)/C=C/c2ccco2)cc1 the Potency was inconclusive: 56.2 µM [inhibitor, partial curve]. In the case of O=C(NC1CCCCC1)C(c1ccnc2ccccc12)n1c(=O)c(-c2ccco2)nc2ccccc21 (centres undefined), the “activity change, negative = inhibition” value is reported as inactive: -6%. O=Cc1cn(-c2ccccc2)nc1-c1cc2cc(O)ccc2oc1=O was tested, and the Potency was inconclusive: 56.2 µM [inhibitor, partial curve]. For CCOC(=O)c1c(NC(=O)CN2CCN(C(=O)C3CCCO3)CC2)sc(C)c1C (centres undefined), the Potency was inconclusive: 79.4 µM [inhibitor, single point]. With O=C(Nn1c(SCc2cccc([N+](=O)[O-])c2)nc2ccccc2c1=O)c1ccccc1 the Potency was inconclusive: 14.1 µM [inhibitor, partial curve]. COc1cccc(C(=O)Nc2cccc(-c3ccc4nncn4n3)c2)c1OC was tested, and the “activity change, negative = inhibition” value was inactive: -11.9%.
